Source: PubChem BioAssay AID2517 (National Center for Advancing Translational Sciences (NCATS), 2010)
Several values for one entry are separate records, joined by “and”; a condition that tells them apart may be missing. Identical values can stand only once. About 1,200 (0.34%) of roughly 350,000 compounds were called active. Inconclusive means that the source gave no clear call. Such entries were picked first, then a sample of the others. The call rests on the fitted dose curve; in most records, active means well fitted inhibition curve with a large enough effect; inconclusive means small, poorly fitted or top-dose-only effect; inactive means no such curve, though single readings can be large or run the other way. Potencies beside an inconclusive call are fits to weak or partial responses and may not hold up.

Chains of the proteins cited; added tags and fusions are not shown.
UniProt P27695, whole entry, looked up: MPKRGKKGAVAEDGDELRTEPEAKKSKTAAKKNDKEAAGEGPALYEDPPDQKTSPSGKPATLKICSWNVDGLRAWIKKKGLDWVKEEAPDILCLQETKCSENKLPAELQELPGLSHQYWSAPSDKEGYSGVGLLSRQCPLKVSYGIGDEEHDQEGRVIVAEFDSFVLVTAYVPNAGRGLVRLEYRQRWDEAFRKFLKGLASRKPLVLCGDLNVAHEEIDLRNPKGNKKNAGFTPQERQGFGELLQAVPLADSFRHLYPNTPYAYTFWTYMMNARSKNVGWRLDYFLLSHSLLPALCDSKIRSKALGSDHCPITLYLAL

biological target: DNA repair nuclease/redox regulator APEX1 (Homo sapiens) (UniProt P27695); assay: qHTS Assay for Inhibitors of the Human Apurinic/apyrimidinic Endonuclease 1 (APE1); details: recombinant APE1, TAMRA/BHQ-2 abasic DNA cleavage fluorescence; activity change, negative = inhibition: at 65.8 µM (top of the series); further: nearly all actives have a fitted effect of over 55% in size;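 on activity change, negative = inhibition: plate controls were vehicle for no effect and reference inhibitor for full effect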
Outline: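 Step 1: APE1 (0.75 nM) with compound, 15 min RT. Step 2: add 50 nM fluorophore/quencher THF duplex. Step 3: three fluorescence reads 60 s apart (525/598 nm); read 3 minus read 1 = reaction progress.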
Potency means the concentration at half of the fitted maximal effect.

Structure (SMILES) | Potency | activity change, negative = inhibition
CCCC(C(=O)NC1=NCCS1)c1ccccc1 (stereo not given) | inconclusive: 8.91 µM [inhibitor, single point] | 
Cc1ccc(C(=O)CSC2=C(C#N)C(c3ccco3)CC(=O)N2)c(C)c1 (stereo not given) | inconclusive: 20 µM [inhibitor, single point] | 
Cc1ccc(SCc2cc(=O)[nH]c(Nc3nc(C)c4ccc(C)cc4n3)n2)cc1 | inconclusive: 28.2 µM [inhibitor, single point] | 
COc1ccc(OCc2nn3c(-c4ccco4)nnc3s2)cc1 |  | inactive: -11.8%
O=C(/C=C/c1cccs1)N1CCN(c2ccc(O)cc2)CC1 |  | inactive: 1.6%
COC(=O)c1sc2ncccc2c1OCc1cccc(Cl)c1 | inconclusive: 39.8 µM [inhibitor, single point] | 
O=C1CCCc2oc3ccc(NS(=O)(=O)c4cccc5cccnc45)cc3c21 | inconclusive: 11.2 µM [inhibitor, partial curve] | 
C#CCOCCOCCOCCNc1nc(N2CCOCC2)nc(N2CCN(C(=O)CCCCCCCCCCNC(=O)[C@@H](CCSC)n3cc(CCO)nn3)CC2)n1 |  | inactive: -1.02%
Oc1ccc2ccccc2c1C=Nc1ccccc1Br |  | inactive: -7.58%
CCCSC1=N/C(=C\c2ccc([N+](=O)[O-])o2)C(=O)S1 | active: 22.4 µM | 
COC/C=C/C1=CC2=CC(=O)C(C)(OC(=O)CCC(=O)OC)C(=O)C2=CO1 (stereo not given) | inconclusive: 31.6 µM [inhibitor, partial curve] | 
O=C(Cc1cccs1)Nc1nnc(SCC(=O)NC2CCCCC2)s1 |  | inactive: -4.37%
O=C1[C@@H]2[C@H](C(=O)N1O)[C@H]1C=C[C@@H]2C1 | inconclusive: 39.8 µM [inhibitor, single point] | 
CCOC(=O)c1ccc2c(c1)N(CC#N)C(=O)C(C)(C)O2 | inconclusive: 17.8 µM [inhibitor, partial curve] | 
Cc1cc(C)n(CC(=O)NN)n1 | inconclusive: 44.7 µM [inhibitor, single point] | 
Cc1noc(C)c1COc1ccccc1C(=O)N(C)Cc1ccc(C(C)(C)C)cc1 |  | inactive: -19.5%
O=C(CCc1nc2ccccc2s1)NC1CCOC1=O (stereo not given) |  | inactive: -16.2%
CCN(CC)c1ccc(NC(=S)NC(=O)c2cccs2)cc1 | inconclusive: 39.8 µM [inhibitor, single point] | 
COc1ccccc1N=c1oc2cc(O)ccc2cc1C(=O)NCC1CCCO1 (stereo not given) |  | inactive: 11.2%
O=C(CCN1CCN(CCO)CC1)Nc1ccc(C2CCCC2)cc1 | inconclusive: 10 µM [inhibitor, full curve] | 
CCOC(=O)c1cnc(-n2nc(C)cc2C)nc1Nc1ccc(C)cc1 | inconclusive: 0.0282 µM [inhibitor, full curve, poor fit] | 
CC1=Nc2ccccc2/C1=C/c1nc(-c2ccc(C)s2)oc1O |  | inactive: -11.9%
COc1ccc(-c2c(C(F)(F)F)nn(C)c2NC(C)=O)cc1 | inconclusive: 39.8 µM [inhibitor, single point] | 
Cc1cc(NC(=O)COC(=O)C2CCC(=O)N2)c([N+](=O)[O-])cc1C (stereo not given) |  | inactive: -4.43%
CCN(CC)c1ccc(S(=O)(=O)N2CCOCC2)cc1NC(=O)CNCc1ccccc1 | inconclusive: 31.6 µM [inhibitor, partial curve] | 

Structure (SMILES) | Potency | activity change, negative = inhibition
Cc1cc(C)c(-n2nnnc2SCC(=O)c2cccs2)c(C)c1 | inconclusive: 2 µM [inhibitor, partial curve, poor fit] | 
CC1OC2(C)OC(=N)C1(C#N)C(C#N)(C#N)C2c1ccccc1 (stereo not given) |  | inactive: 1.01%
CCOC(=O)CSc1ccc(S(=O)(=O)N(CC)CC)cc1[N+](=O)[O-] | inconclusive: 28.2 µM [inhibitor, single point] | 
Cc1ccc2nc(NC(=O)CCCc3nc4ccccc4s3)sc2c1 |  | inactive: 13.2%
CC1=CC(C)C2(COC(c3ccc[n+](C)c3)OC2)C(C)C1 (stereo not given) | inconclusive: 39.8 µM [inhibitor, single point] | 
COc1ccc(C#Cc2c(C=O)n(C)c3ccccc23)cc1 |  | inactive: 22%
CN1CCN(S(=O)(=O)c2ccccc2)CC1 |  | inactive: 7.14%
CCCc1nc2oc(C(=O)OCC)c(N)c2c2c1COC(C)(C)C2 | inconclusive: 39.8 µM [inhibitor, single point] | 
CC(C)c1ccc(OCC(=O)N(c2ccccn2)C2CCCCC2)cc1 |  | inactive: 2.41%
O=C1CN(C(=O)COC(=O)C2CC(=O)N(Cc3ccco3)C2)c2ccccc2N1 (stereo not given) | inconclusive: 44.7 µM [inhibitor, single point] | 
O=C1CCCC(O)=C1Sc1ccccc1C(=O)O | inconclusive: 50.1 µM [inhibitor, single point] | 
Cc1cc(/C=N/n2cnnc2)c(C)n1-c1ccc(OCc2ccc(F)cc2)cc1 | inconclusive: 28.2 µM [inhibitor, partial curve, poor fit] | 
O=C(O)c1ccc(O)c2ncccc12 |  | inactive: -5.83%
O=C(O)c1cccc(-n2cccc2/C=C\[N+](=O)[O-])c1 | active: 12.6 µM | 
Cc1cc(OCC(=O)c2cccc(C(F)(F)F)c2)n2cnnc2n1 | inconclusive: 7.94 µM [inhibitor, single point] | 
N#Cc1cccc2c1-c1ccccc1/C2=N/NC(N)=S |  | inactive: 12.3%
CC(=O)Nc1ccc(-c2ccc(NC(C)=O)c(O)c2)cc1O | inconclusive: 28.2 µM [inhibitor, partial curve] | 
O=C(O)CCc1cc(I)c(O)c(I)c1 |  | inactive: -0.863%
COc1ccc(-c2cc(COc3ccccc3)on2)cc1 |  | inactive: -6.36%
O=C(c1ccccc1)c1cc(-c2ccccc2)on1 |  | inactive: 3.06%
CCOC(=O)c1c(-c2ccc(Cl)cc2)csc1NC(=O)CNCc1ccco1 | inconclusive: 39.8 µM [inhibitor, single point] | 
Cc1cc(O)c(C=Nc2cccc(Cl)c2)c(=O)o1 |  | inactive: 0.333%
NS(=O)(=O)c1cccc(NC(=O)CSc2nc3nc(-c4cccs4)cc(C(F)(F)F)c3c(=O)[nH]2)c1 |  | inactive: 1.68%
Oc1ccc(/C(Cc2ccc3ccccc3n2)=N\Nc2ccccc2)c(O)c1 | inconclusive: 17.8 µM [inhibitor, partial curve, poor fit] | 
Cc1cc(C)c2nc(C)cc(N/N=C/c3ccc(O)cc3)c2c1 | inconclusive: 23.8 µM [inhibitor, single point] | 

Structure (SMILES) | Potency | activity change, negative = inhibition
O=C(/C=C/c1ccc2c(c1)OCCCO2)c1ccc2ccccc2c1O | inconclusive: 0.0112 µM [inhibitor, full curve, poor fit] | 
CN(C)C(=O)N1CCN(C(=O)N(C)C)CC1 |  | inactive: 1.03%
COc1cc2c(cc1/C=C/C(=O)O)OC(C)C2 (stereo not given) | inconclusive: 3.98 µM [inhibitor, single point] | 
O=C(O)CCC(=O)N1N=C(c2ccco2)CC1c1cccs1 (stereo not given) |  | inactive: 4.79%
CCOC(=O)N1CCC(N2CC34C=CC(O3)C(C(=O)O)C4C2=O)CC1 (stereo not given) | inconclusive: 44.7 µM [inhibitor, single point] | 
C=CCOC(=O)c1cc(-c2ccc(/C=C3\C(=O)NC(=O)C(C#N)=C3C)o2)ccc1Cl | inconclusive: 35.5 µM [inhibitor, single point] | 
COc1ccccc1-c1ccc(/C=C2/C=C(C)OC2=O)o1 |  | inactive: -1.34%
Cc1ccc(S(=O)(=O)N(C)c2ccccc2C(=O)Nc2ccc3c(c2)OCCO3)cc1 | inconclusive: 3.98 µM [inhibitor, single point] | 
Cc1ccc(NC(=O)c2c(C(F)(F)F)nn(C)c2SCc2ccc(Cl)cc2)cc1C | inconclusive: 44.7 µM [inhibitor, partial curve, poor fit] | 
O=C(Nc1ccccc1N1CCN(c2ccccc2)CC1)c1cccc(F)c1 | inconclusive: 44.7 µM [inhibitor, single point] | 
COc1cc(C)nc(N2CCCC(C(=O)Nc3cccc(Cl)c3C)C2)n1 (stereo not given) | inconclusive: 0.0158 µM [inhibitor, full curve, poor fit] | 
O=C(NN=C1CCCC1)c1cc(O)cc(O)c1 | active: 10.6 µM | 
CCc1ccc(OCc2nnc(-c3ccccc3Br)o2)cc1 |  | inactive: 14%
Cn1c(N)c(C(=O)COC(=O)c2cc(-c3ccco3)nc3ccccc23)c(=O)n(C)c1=O | inconclusive: 28.2 µM [inhibitor, partial curve] and inconclusive: 22.4 µM [inhibitor, partial curve, poor fit] | 
N=c1c(C(=O)NCc2ccc(F)cc2)cc2c(=O)n3ccccc3nc2n1CCCN1CCOCC1 |  | inactive: 14.6%
CCOc1ccc(C(C)=O)cc1N1C(=O)C2C3C=CC(C3)C2C1=O (stereo not given) | inconclusive: 25.1 µM [inhibitor, partial curve] | 
Cc1cc2nc(C)n(CCCNC(=O)Nc3cccc4ccccc34)c2cc1C |  | inactive: 9.68%
O=C1C2C3C=CC(C3)C2C(=O)N1c1ncn[nH]1 (stereo not given) | inconclusive: 22.4 µM [inhibitor, partial curve] | 
N#Cc1c(NC(=O)CCC(=O)O)sc2c1CCCCC2 | inconclusive: 39.8 µM [inhibitor, single point] | 
O=C(O)COc1ccc(/C=N/NC(=O)Cc2ccc(Cl)cc2)cc1 |  | inactive: -2.6%
COc1cc(/C=C/C(=O)OCc2cn3cc(Cl)ccc3n2)ccc1O | inconclusive: 25.1 µM [inhibitor, single point] | 
COc1ccc2oc(=O)c(-c3nc(C)cs3)cc2c1 | inconclusive: 0.0126 µM [inhibitor, full curve, poor fit] | 
O=c1c(C(c2ccc(O)cc2)c2c(O)nc3n(c2=O)CCS3)c(O)nc2n1CCS2 |  | inactive: 0.631%
CCOC(=O)c1c(-c2ccc(C)cc2)cn2ccccc12 | inconclusive: 2 µM [inhibitor, full curve, poor fit] | 
N#Cc1c(NC(=O)CSc2nnc(-c3ccccc3)o2)sc2c1CCCC2 | inconclusive: 25.1 µM [inhibitor, partial curve] | 
